# Assay results taken from the supplement of paper PMC12889115.
# Some of the results follow. Values are raw readings; no control value is given beside them.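 Primary screen: polymyxin B was added at a level permeabilizing Salmonella outer membranes while sparing inner membranes. DMSO wells, both with and without polymyxin B, established maximum growth. Plate-to-plate variation meant each plate was ranked on its own, and the lowest-OD600 compounds were selected as hits.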
# System: Salmonella enterica serovar Typhimurium SL1344
# Experiment: bacterial growth OD600 after 18 h with compound and polymyxin B; higher = more bacterial growth (less inhibition)
# Details: 50 µM, Mueller-Hinton broth
Compound,bacterial growth OD600 (polymyxin B 0.75 µg/mL),bacterial growth OD600 (polymyxin B 1 µg/mL)
COCc1ccc(C(=O)NCC2Cc3cc(-c4nc(C)cnc4C)ccc3O2)o1 (configuration not stated),0.868,–
Cc1ccc(C(=O)N(C)CC2CCCN(CCc3ccc(Cl)cc3)C2)s1 (configuration not stated),–,0.923
Cc1ccc2c(c1)CN(Cc1ccccn1)CC(c1ccsc1)O2 (configuration not stated),0.39,–
CCC(=O)N[C@@H]1c2ccccc2C2(CCN(C(=O)CCCC(=O)OC)CC2)[C@H]1OCc1cccnc1,0.847,–
Fc1ccc(Oc2ncccc2CNC2CCOCC2)cc1F,–,0.98
CCc1csc(CNC(=O)c2ccc(NCc3ccccc3)nc2)n1,–,0.717
COCCN1C(=O)CC(CC(=O)N2CCN(c3cc(C)cc(C)c3)C(=O)C2)(c2ccccc2F)C1=O (configuration not stated),0.793,–
CCN(CC)c1ncccc1CNC(=O)Nc1cccc(OC)c1,–,0.907
O=C(NCC1CCCN(CC#Cc2ccccc2)C1)c1ccc(F)cc1 (configuration not stated),–,0.78
COCC(=O)Nc1cc(C(=O)NCC(C)Oc2cccnc2)c2c(c1)ncn2CCc1ccccc1 (configuration not stated),0.844,–
CC(=O)c1ccc(N2CCC(C3CCN(CC(C)C)CC3)C2)nc1 (configuration not stated),0.827,–
Cc1nn(C)cc1CN(C)C(=O)CC(c1ccccc1)c1ccccc1Cl (configuration not stated),–,0.83
COCCCC1CCN(C(=O)C2CCC(=O)N(CCCN3CCCC3=O)C2)CC1 (configuration not stated),–,0.941
Cc1ccc(C(=O)N2CCC(C(Cc3ccc(F)cc3F)N(C)C(=O)C3CC3)CC2)s1 (configuration not stated),0.722,–
CC1(C)Cc2nc(N3CCOCC3)ncc2C(NC(=O)C2CCCCC2)C1 (configuration not stated),0.011,–
CO[C@H]1[C@H](NC(=O)c2ccncc2)c2ccccc2C12CCN(C(=O)CCN1CCCO1)CC2,0.801,–

Compound,bacterial growth OD600 (polymyxin B 0.75 µg/mL),bacterial growth OD600 (polymyxin B 1 µg/mL)
C=CCCC(=O)N1CCCC(CCc2c(F)cccc2F)C1 (configuration not stated),0.794,–
Cc1ncccc1C(=O)N1CC[C@@H](N2CCN(c3ccccc3F)CC2)[C@H](O)C1,–,0.928
O=C(CC(c1ccccc1)c1ccc2c(c1)OCO2)NCCN1CCOC1=O (configuration not stated),0.793,–
CCOC(=O)C1(CCCc2ccccc2)CCN(C(=O)c2csnn2)CC1,–,0.504
CC(=O)Nc1cc(C(=O)N2CCC(c3ccccc3F)C2)cc2ncn(Cc3ccc(F)cc3)c12 (configuration not stated),0.835,–
O=C(Nc1cccc(-n2cccn2)c1)C1CCCN1C(=O)CC1CC1 (configuration not stated),–,0.941
COc1ccc(OC2CCN(C3CCCC3)CC2)c(C(=O)N2CCCN(C=O)CC2)c1,–,1.22
CCOC(=O)N1CCN(C2CCCN(Cc3ccc4cccc(OC)c4n3)C2)CC1 (configuration not stated),0.815,–
COc1cc(CN2Cc3ccccc3OC(c3ccccc3F)C2)cc(OC)c1OC (configuration not stated),0.01,–
CN(CCc1ccccn1)c1ncccc1CNC(=O)c1cn2ccccc2n1,–,0.989
Cc1cnc(CNC(=O)CC(c2cccc(O)c2)c2ccccc2Cl)cn1 (configuration not stated),–,1.01
O=C(Cn1cccn1)N1CCc2onc(C(c3ccccc3)c3ccccc3)c2C1,–,0.849
COC(=O)CCCC(=O)NC1CCCN(Cc2ccccc2F)C1 (configuration not stated),–,0.9
O=C(NC1CCCCC1)c1ccccc1OC1CCN(C(=O)c2cccnc2)CC1,–,1.33
OCC1(Cc2cccc(Cl)c2)CCCN(Cc2ccc(F)c(F)c2)C1 (configuration not stated),–,0.001
CC(Cc1cccnc1)N1CCC(Oc2ccc(C(=O)NCc3ccccn3)cc2)CC1 (configuration not stated),–,1.05
